These are yes or no findings as the source states them, for the method shown.
Molecular target: Δ18PA1624 (hypothetical periplasmic protein PA1624 from Pseudomonas aeruginosa PAO1 without its periplasmic localization signal) (P. aeruginosa PAO1)
Assay: SEC; size-exclusion chromatography during purification, Superdex 26/600 S75 prep-grade column, buffer GF (50 mM HEPES, 150 mM NaCl pH 8.0); both purified

- binding: no binding
B1: Δ18PA1624 (hypothetical periplasmic protein PA1624 from Pseudomonas aeruginosa PAO1 without its periplasmic localization signal) (protein)
chain: GPHMADLPGSHDLDILPRFPRAEIVDFRQAPSEERIYPLGAISRISGRLRMEGEVRAEGELTALTYRLPPEHSSQEAFAAARTALLKADATPLFWCERRDCGSSSLLANAVFGNAKLYGPDEQQAYLLVRLAAPQENSLVAVYSITRGNRRAYLQAEELKADAPLAELLPSPATLLRLLKANGELTLSHVPAEPAGSWLELLVRTLRLDTGVRVELSGKHAQEWRDALRGQGVLNSRMELGQSEVEGLHLNWLR
